Article PMC6449874

Protein sequences, listed by entry. Tags and fused reporters are not part of them. Lines headed by an entry give the natural chain unless they say otherwise; changes in a name come on top.
UniProt Q9ATD6: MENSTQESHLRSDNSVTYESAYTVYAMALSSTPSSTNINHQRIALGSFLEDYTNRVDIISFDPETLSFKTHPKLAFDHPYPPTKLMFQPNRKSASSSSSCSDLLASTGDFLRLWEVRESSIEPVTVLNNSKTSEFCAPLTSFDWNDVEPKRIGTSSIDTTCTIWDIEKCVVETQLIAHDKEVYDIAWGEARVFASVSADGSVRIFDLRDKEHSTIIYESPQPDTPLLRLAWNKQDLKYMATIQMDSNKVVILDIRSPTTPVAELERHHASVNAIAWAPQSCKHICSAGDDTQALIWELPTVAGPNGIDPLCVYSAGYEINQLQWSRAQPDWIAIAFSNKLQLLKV

What was measured:
Test in all cases: pull-down; LUMIER pulldown: one protein fused to ProtA, the other to Rluc, each single-expressed in HEK293TM cells; lysis buffer 20 mM Tris pH 7.5, 250 mM NaCl, 1.1% Triton X-100, 10 mM EDTA, 10 mM DTT; sheep anti-rabbit IgG-coated Dynabeads, 1 h on ice; Rluc on the beads as percent of input; +: >= 2.5%, w: 1.5%-2.5%, -: < 1.5%; two grades in each cell
[1] = biological target: T1, AtTT2 (Arabidopsis thaliana) (UniProt Q9FJA2)
T1 sequence: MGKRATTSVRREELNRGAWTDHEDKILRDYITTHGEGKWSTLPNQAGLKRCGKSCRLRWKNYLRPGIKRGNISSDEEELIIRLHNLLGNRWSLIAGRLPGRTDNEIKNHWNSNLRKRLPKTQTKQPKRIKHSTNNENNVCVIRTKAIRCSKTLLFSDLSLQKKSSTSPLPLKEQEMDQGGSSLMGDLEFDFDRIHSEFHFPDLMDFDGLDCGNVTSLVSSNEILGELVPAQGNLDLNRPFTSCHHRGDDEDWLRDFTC

[2] = biological target: T2, AtGL3 (Arabidopsis thaliana) (UniProt Q9FN69)
T2 sequence: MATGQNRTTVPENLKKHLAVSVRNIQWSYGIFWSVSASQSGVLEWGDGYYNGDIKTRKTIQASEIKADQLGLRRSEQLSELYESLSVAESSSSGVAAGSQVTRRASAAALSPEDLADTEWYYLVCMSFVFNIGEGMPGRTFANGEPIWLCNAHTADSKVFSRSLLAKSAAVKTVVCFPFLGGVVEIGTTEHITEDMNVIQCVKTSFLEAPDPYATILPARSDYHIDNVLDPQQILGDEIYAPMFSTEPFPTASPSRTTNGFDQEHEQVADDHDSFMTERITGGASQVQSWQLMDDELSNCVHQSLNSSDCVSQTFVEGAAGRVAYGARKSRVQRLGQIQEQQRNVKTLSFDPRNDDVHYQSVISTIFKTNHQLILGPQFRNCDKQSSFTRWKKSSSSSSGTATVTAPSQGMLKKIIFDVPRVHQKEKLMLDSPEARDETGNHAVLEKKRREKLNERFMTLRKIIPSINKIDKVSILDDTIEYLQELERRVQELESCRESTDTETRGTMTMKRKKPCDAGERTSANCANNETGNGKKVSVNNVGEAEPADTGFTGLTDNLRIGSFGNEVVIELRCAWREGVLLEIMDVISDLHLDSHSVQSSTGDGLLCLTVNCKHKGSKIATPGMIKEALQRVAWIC

[3] = biological target: T3, AtEGL3 (Arabidopsis thaliana) (UniProt Q9CAD0)
T3 sequence: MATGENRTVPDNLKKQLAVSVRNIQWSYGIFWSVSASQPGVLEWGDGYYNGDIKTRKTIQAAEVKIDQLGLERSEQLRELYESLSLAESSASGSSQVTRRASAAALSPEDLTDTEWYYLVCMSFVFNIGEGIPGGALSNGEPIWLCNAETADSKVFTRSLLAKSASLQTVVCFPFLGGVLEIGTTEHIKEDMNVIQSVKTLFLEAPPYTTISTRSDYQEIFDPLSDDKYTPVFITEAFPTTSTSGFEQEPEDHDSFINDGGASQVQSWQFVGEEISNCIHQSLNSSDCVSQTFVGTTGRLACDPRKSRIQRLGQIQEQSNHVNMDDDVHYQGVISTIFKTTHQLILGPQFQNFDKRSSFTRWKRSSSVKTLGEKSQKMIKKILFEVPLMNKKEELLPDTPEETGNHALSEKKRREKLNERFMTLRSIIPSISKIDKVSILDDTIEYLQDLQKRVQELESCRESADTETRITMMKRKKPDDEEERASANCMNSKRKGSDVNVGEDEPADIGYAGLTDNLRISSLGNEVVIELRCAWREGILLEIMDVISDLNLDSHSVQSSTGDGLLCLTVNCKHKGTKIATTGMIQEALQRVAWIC

[4] = biological target: T4, AtMYC1 (Arabidopsis thaliana) (UniProt Q8W2F1)
T4 sequence: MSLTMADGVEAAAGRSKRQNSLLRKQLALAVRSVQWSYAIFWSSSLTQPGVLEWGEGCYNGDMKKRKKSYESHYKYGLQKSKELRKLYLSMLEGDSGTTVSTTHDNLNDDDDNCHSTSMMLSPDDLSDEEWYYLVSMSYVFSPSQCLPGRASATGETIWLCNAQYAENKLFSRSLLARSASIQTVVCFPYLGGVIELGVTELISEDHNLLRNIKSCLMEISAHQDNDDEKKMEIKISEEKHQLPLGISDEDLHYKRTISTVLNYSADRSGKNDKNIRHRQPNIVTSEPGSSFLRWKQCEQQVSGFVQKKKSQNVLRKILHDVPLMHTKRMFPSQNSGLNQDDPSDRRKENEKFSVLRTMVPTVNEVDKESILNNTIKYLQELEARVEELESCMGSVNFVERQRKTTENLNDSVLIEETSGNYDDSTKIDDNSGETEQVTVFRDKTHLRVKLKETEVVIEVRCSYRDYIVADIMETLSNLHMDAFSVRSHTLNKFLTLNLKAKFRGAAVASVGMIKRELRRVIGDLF

Row | Substance | binding [1] | binding [2] | binding [3] | binding [4]
1 | ZmMP1 (Zea mays) | no binding | no binding | no binding | 
2 | GhTTG2 (Gossypium hirsutum) | no binding | no binding | no binding | no binding
3 | GhTTG4 (Gossypium hirsutum) | no binding | no binding | no binding | no binding
4 | AaTTG1 (Arabis alpina) | no binding | binds | binds | binds
5 | GhTTG1 (from UniProt Q9ATD6) | no binding | binds | binds | binds
6 | ZmPAC1 (Zea mays) | no binding | binds | binds | binds
7 | GhTTG3 (Gossypium hirsutum) | binds weakly | binds | binds | binds

Results are given in words; binding and its absence hold for the method and conditions named. Binding seen in cells or lysates may run through a third protein. Binding calls can cover weak binding; strength is not graded here. For part of these data: Tags and fused reporters may be left off the sequences shown.
